According to article PMC10899426:
Results are given in words; binding and its absence hold for the method and conditions named. In cells and extracts the contact can be indirect. Some entries that bind do so weakly or less than the wild type.

Protein sequences, listed by entry. Tags and fused reporters are not part of them.
UniProt P07355: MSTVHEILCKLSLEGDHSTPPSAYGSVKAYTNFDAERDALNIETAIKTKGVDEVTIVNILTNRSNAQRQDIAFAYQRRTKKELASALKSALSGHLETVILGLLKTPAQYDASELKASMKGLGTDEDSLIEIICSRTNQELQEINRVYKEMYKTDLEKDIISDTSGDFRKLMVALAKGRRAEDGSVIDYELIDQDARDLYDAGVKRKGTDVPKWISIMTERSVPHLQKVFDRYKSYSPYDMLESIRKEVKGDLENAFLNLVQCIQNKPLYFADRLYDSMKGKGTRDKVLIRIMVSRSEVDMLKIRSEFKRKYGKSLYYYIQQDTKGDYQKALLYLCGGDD
UniProt P19474: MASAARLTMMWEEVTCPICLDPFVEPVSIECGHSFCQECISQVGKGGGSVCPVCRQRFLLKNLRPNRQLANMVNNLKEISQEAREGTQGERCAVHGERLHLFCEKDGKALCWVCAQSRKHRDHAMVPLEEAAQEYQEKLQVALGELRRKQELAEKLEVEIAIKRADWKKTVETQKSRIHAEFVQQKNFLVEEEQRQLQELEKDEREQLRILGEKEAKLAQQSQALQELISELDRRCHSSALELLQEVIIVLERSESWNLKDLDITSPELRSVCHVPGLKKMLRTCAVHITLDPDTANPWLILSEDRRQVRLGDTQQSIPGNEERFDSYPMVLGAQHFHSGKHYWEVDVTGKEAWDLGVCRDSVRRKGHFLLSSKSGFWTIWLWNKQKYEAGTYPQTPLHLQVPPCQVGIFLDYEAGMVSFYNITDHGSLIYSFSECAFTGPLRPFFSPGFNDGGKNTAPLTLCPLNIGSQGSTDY

Target: Annexin A2 (ANXA2) (human (endogenous in HUVECs)) (UniProt P07355)
Test: co-IP; endogenous proteins in HUVECs; Pierce Co-Immunoprecipitation Kit; immunoprecipitated with antibodies, then western blotting; IgG as negative control

binding: binds
Substance: tripartite motif-containing 21 (TRIM21) (from UniProt P19474 1-475)
